No constants are given. Whether binding was seen depends on the method and setting. In cells and extracts the contact can be indirect. Some binding calls cover weakened binding; strength is not graded here. Where a sequence is shown, tags or fusion partners need not be part of it.
Molecular target: SMARCC1 (SWI/SNF related, matrix associated, actin dependent regulator or chromatin subfamily c, member 1) (human (endogenous in HEK 293T)) (UniProt Q92922)
Test: co-IP; HEK 293T cells transfected with myc-BBS6, fractionated into cytoplasm and nucleus; IP of each fraction with SMARCC1 antibody; western blot probed for myc-BBS6

Protein sequences, listed by entry. Tags and fused reporters are not part of them.
UniProt Q92922: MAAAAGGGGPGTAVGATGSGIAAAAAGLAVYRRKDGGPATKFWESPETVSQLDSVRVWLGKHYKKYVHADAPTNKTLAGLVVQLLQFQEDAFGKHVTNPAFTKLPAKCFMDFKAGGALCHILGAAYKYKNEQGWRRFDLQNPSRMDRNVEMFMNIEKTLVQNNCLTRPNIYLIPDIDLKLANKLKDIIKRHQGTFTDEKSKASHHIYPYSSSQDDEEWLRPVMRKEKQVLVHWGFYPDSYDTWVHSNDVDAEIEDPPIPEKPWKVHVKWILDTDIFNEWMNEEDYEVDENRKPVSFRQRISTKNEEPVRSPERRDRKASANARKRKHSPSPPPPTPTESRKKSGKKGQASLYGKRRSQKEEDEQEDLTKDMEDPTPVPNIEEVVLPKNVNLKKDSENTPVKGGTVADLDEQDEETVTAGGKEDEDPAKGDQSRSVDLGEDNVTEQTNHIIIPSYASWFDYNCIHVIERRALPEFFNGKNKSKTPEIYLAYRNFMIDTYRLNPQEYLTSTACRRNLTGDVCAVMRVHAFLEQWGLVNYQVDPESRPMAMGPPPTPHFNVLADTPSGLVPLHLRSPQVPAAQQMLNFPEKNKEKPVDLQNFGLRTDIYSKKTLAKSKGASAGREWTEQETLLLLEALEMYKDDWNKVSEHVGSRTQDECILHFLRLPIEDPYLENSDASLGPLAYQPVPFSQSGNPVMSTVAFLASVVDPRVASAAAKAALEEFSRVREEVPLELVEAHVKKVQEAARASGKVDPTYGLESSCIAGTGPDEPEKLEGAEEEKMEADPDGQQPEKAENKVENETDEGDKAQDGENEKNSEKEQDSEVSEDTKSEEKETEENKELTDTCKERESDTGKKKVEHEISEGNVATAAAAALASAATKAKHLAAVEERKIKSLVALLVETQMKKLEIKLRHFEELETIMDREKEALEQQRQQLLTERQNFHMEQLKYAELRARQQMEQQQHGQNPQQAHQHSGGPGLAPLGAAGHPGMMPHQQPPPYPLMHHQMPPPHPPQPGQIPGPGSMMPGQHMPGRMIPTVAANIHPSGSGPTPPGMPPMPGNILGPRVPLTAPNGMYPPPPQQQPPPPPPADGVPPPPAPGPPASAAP

binding: binds
B1: myc-tagged human BBS6 expressed in HEK 293T cells (protein, UniProt Q9NPJ1 1-570)
chain: MSRLEAKKPSLCKSEPLTTERVRTTLSVLKRIVTSCYGPSGRLKQLHNGFGGYVCTTSQSSALLSHLLVTHPILKILTASIQNHVSSFSDCGLFTAILCCNLIENVQRLGLTPTTVIRLNKHLLSLCISYLKSETCGCRIPVDFSSTQILLCLVRSILTSKPACMLTRKETEHVSALILRAFLLTIPENAEGHIILGKSLIVPLKGQRVIDSTVLPGILIEMSEVQLMRLLPIKKSTALKVALFCTTLSGDTSDTGEGTVVVSYGVSLENAVLDQLLNLGRQLISDHVDLVLCQKVIHPSLKQFLNMHRIIAIDRIGVTLMEPLTKMTGTQPIGSLGSICPNSYGSVKDVCTAKFGSKHFFHLIPNEATICSLLLCNRNDTAWDELKLTCQTALHVLQLTLKEPWALLGGGCTETHLAAYIRHKTHNDPESILKDDECTQTELQLIAEAFCSALESVVGSLEHDGGEILTDMKYGHLWSVQADSPCVANWPDLLSQCGCGLYNSQEELNWSFLRSTRRPFVPQSCLPHEAVGSASNLTLDCLTAKLSGLQVAVETANLILDLSYVIEDKN
